Reference: PubChem BioAssay AID651768 (National Center for Advancing Translational Sciences (NCATS), 2012)
The campaign covered roughly 360,000 compounds. About 1,700 (0.47%) were called active. The inconclusive results got no clear call from the source; some entries with a clear call stand among them for comparison. The call rests on the fitted dose curve; in most records, active means well fitted inhibition curve with a large enough effect; inconclusive means small, poorly fitted or top-dose-only effect; inactive means no such curve, though single readings can be large or run the other way. A potency beside an inconclusive call is a rough fit, not a confirmed value.

By UniProt entry, the sequences of proteins in these tests, tags left out.
UniProt Q14191, whole entry, looked up: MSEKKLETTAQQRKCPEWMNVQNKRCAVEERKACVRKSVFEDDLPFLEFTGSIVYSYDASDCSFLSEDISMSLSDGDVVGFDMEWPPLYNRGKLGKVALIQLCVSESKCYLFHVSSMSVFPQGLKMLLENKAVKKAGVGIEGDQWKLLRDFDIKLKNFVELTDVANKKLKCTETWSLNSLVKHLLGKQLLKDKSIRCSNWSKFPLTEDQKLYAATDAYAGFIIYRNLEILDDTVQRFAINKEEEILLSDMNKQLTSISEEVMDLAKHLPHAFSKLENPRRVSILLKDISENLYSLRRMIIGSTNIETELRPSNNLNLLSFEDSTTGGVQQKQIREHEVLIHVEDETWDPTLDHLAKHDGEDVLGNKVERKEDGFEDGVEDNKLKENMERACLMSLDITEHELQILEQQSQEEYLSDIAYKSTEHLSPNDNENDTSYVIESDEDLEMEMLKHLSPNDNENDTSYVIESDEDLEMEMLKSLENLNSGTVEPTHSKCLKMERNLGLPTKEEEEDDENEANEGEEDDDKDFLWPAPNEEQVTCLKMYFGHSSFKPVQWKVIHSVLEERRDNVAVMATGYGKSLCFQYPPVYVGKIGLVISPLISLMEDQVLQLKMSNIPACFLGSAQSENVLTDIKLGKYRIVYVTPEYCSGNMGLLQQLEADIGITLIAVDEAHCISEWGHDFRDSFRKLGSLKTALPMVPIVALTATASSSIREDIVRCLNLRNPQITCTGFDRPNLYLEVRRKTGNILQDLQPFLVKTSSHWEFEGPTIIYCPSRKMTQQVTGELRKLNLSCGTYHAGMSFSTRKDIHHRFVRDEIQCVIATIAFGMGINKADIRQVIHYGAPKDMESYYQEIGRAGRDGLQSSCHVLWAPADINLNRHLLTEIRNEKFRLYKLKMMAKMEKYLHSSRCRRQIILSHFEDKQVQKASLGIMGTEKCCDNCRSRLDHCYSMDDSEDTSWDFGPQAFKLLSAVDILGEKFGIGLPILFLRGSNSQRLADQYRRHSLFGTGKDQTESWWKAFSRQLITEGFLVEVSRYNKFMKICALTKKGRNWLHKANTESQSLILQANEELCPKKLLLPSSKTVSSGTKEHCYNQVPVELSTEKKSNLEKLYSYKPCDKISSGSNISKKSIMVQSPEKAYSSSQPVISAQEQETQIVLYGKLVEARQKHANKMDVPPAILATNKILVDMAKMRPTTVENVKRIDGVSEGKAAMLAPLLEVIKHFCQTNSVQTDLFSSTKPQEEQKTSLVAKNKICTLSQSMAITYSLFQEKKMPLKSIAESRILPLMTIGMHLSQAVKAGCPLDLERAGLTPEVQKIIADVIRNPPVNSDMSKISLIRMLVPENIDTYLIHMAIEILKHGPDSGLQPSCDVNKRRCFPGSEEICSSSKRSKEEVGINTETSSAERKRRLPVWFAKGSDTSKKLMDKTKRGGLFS

target: Bifunctional 3'-5' exonuclease/ATP-dependent helicase WRN (Homo sapiens) (UniProt Q14191); test: qHTS for Inhibitors of WRN Helicase; details: WRN helicase unwinding, fluorescent forked duplex, kinetic; series mostly up to 114 µM; further: nearly all actives have a fitted effect of over 55% in size
How it was run: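 WRN at 20 nM final was preincubated with compound for 15 min at room temperature; reaction started with 100 nM forked duplex oligonucleotide carrying fluorophore and quencher plus 2 mM ATP (final). Unwinding followed kinetically by red fluorescence (ex 525/em 598 nm).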
Potency means the concentration at half of the fitted maximal effect.

SMILES	Potency
CC(=O)c1sc(NC(=O)COc2ccc(C(C)C)c(C)c2)nc1C	inconclusive: 89.1 µM [inhibitor, single point]
COc1ccc(CN(C)C(=O)CNC(=O)c2sc3ccccc3c2Cl)c(OC)c1OC	inconclusive: 15.8 µM [inhibitor, single point]
COc1ccc(Cn2c(C)nc3c(c2=O)c2nc4ccccc4nc2n3Cc2ccco2)cc1	active: 8.44 µM
CC1=C(C#N)c2nc(N)c(C#N)c(C)c2/C1=C\c1ccc(OCC(=O)O)c(Cl)c1	inconclusive: 10 µM [inhibitor, partial curve]
COCCN1CSC(=S)N(Cc2ccco2)C1	inconclusive: 56.2 µM [inhibitor, partial curve]
CC(C)Oc1ccc(C2NC(=O)c3ccccc3O2)cc1 (stereo unspecified)	inconclusive: 89.1 µM [inhibitor, single point]
O=C(NCc1ccco1)c1nc2nc(-c3cccs3)cc(C(F)(F)F)n2n1	inconclusive: 44.7 µM [inhibitor, partial curve]
Cc1ccccc1C(=O)Nc1nc(=S)ss1	inconclusive: 100 µM [inhibitor, partial curve, poor fit]
O=C(Nc1ccon1)c1ccc(N2CCCCC2)c([N+](=O)[O-])c1	inactive
C/C=C\C=C/C(=O)Nc1cccc(C2=NOC3(C2)C[C@@H](C(N)=O)N(C(=O)/C=C/C=C\C)C3)c1 (stereo partly specified)	active: 25.1 µM
CC(C)c1ccc(/C=C/C(=O)NC2CCCCC2)cc1	inconclusive: 25.1 µM [inhibitor, single point]
O=C(NCC1CCCO1)c1ccc2c(c1)N(Cc1ccccc1)C(=O)CS2 (stereo unspecified)	inactive
COc1cccc(C=Nc2ccc3c(c2)OCCO3)c1O	inconclusive: 50.1 µM [inhibitor, partial curve, poor fit]
CCCCN(Cc1ccc(C(=O)N[C@H](C(=O)O)C(C)C)cc1)C(=O)C(c1ccccc1)c1ccccc1	inactive
CCCN1C(=O)/C(=C/c2c(N3CCNC(=O)C3CC(=O)OCC)nc3c(C)cccn3c2=O)SC1=S (stereo unspecified)	inconclusive: 39.8 µM [inhibitor, single point]
CCOC(=O)c1cc(-c2ccco2)nc2c1c(C)nn2-c1cccc(Cl)c1	inactive
Cc1cc(NC(=O)CSc2ccnc(=O)[nH]2)no1	inconclusive: 25.1 µM [inhibitor, full curve, poor fit]
COc1ccc(/C=N/NC(=O)c2ccccc2)cc1OS(=O)(=O)c1ccccc1	inconclusive: 15.8 µM [inhibitor, single point]
O=C(C1CC(=O)N(c2ccc(F)cc2)C1)N1CCN(c2ccc(F)cc2)CC1 (stereo unspecified)	inactive
Cc1ccc(/C=C/C(=O)NCc2ccccn2)o1	active: 50.1 µM
COC(=O)C1=NNC(C(=O)OC)C1c1ccccc1 (stereo unspecified)	inactive

Copied from the list.
In Potency, `CCCCN(Cc1ccc(C(=O)N[C@H](C(=O)O)C(C)C)cc1)C(=O)C(c1ccccc1)c1ccccc1` has the entry inactive
In Potency, `O=C(NCC1CCCO1)c1ccc2c(c1)N(Cc1ccccc1)C(=O)CS2` (stereo unspecified) has the entry inactive
In Potency, `COc1ccc(Cn2c(C)nc3c(c2=O)c2nc4ccccc4nc2n3Cc2ccco2)cc1` has the entry active: 8.44 µM

(cont.)

SMILES	Potency
COc1cccc(C(=O)Nc2ccc(NC(=O)C3C4C=CC(C4)C3C(=O)O)cc2)c1 (stereo unspecified)	inconclusive: 89.1 µM [inhibitor, single point]
CCn1c(O)c(N=Nc2ccc(Cl)c(C(=O)O)c2)c2ccccc21	inconclusive: 50.1 µM [inhibitor, partial curve]
COc1cc(/C=N/NC(=O)c2ccc3c(c2)OCCO3)cc(Br)c1O	inactive
COc1cccc(NC(=O)CN2C(=O)NC(c3ccccc3)(c3ccccc3)C2=O)c1	inconclusive: 89.1 µM [inhibitor, single point]
O=[N+]([O-])c1cc(S(=O)(=O)Oc2ccccc2)ccc1Cl	inconclusive: 12.6 µM [inhibitor, full curve, poor fit]
CCOc1ccc(N2CC(C(=O)Nc3nnc(C4CCCCC4)s3)CC2=O)cc1 (stereo unspecified)	inconclusive: 25.1 µM [inhibitor, single point]
COC(=O)c1ccc(-c2csc(NC(=O)C3=COCCO3)n2)cc1	inconclusive: 50.1 µM [inhibitor, partial curve]
CC1C=CC=CC=CC=CC=CC=CC=CC(OC2OC(C)C(O)C(N)C2O)CC2OC(O)(CC(O)CC(O)C(O)CCC(O)CC(O)CC(=O)OC(C)C(C)C1O)CC(O)C2C(=O)O (stereo unspecified)	active: 17.8 µM
C#CCOCCOCCOCCNc1nc(N2CCN(C(=O)[C@H](CCCCN)n3cc([C@@H](N)C(C)CC)nn3)CC2)nc(N2CCN(C(=O)[C@H](Cc3cc4ccccc4[nH]3)n3cc([C@@H](N)C(C)CC)nn3)CC2)n1 (stereo partly specified)	inconclusive: 79.4 µM [inhibitor, partial curve]
C/C=C/C=C/C(=O)[C@@H]1[C@@H]([C@]2(C)OC(=O)C(C)=C2O)[C@H]2/C(=C(O)/C=C/C=C/C)C(=O)[C@]1(C)C(=O)C2(C)O (stereo partly specified)	inconclusive: 2.99 µM [inhibitor, partial curve]
Cc1cc(C)n(CCC(=O)N=Nc2c(O)[nH]c3ccc(Br)cc23)n1	inconclusive: 56.2 µM [inhibitor, partial curve]
O=C(O)c1ccccc1C(=O)Nc1cccc([N+](=O)[O-])c1	inactive
COc1cc(NS(=O)(=O)c2ccc(NC(=O)c3ccc([N+](=O)[O-])cc3)cc2)ncn1	inconclusive: 79.4 µM [inhibitor, single point]
Cc1ccc(C)c(C(=O)CSc2n[nH]c(C)n2)c1	inactive
CC(C)(C)c1ccc(-n2nc(C#N)c(Cl)cc2=O)cc1	inconclusive: 56.2 µM [inhibitor, partial curve]
COc1ccc(NC(=O)C(=O)NCCN2CCN(C(=O)c3cccc(Br)c3)CC2)cc1	inconclusive: 100 µM [inhibitor, single point]
COc1cccc(-n2c(SCc3cc(=O)oc4cc(O)c(O)cc34)nc3ccccc3c2=O)c1	active: 28.2 µM
Cc1ccc(-n2cc(CN3CCC(CO)(Cc4cccc(C(F)(F)F)c4)CC3)cn2)cc1	inconclusive: 39.8 µM [inhibitor, single point]
N#C/C(=C\c1ccc([N+](=O)[O-])o1)C(=O)Nc1ccc(F)cc1	inconclusive: 56.2 µM [inhibitor, partial curve]
Cc1ccc(NCc2nnc(SCC(N)=O)n2CC2CCCO2)c(C)c1 (stereo unspecified)	inactive
